# Measured values: PubChem BioAssay (EPA / NIEHS)
# Chains of the proteins cited; added tags and fusions are not shown. Lines headed by an entry give the natural chain unless they say otherwise; changes in a name come on top.
# UniProt P19793: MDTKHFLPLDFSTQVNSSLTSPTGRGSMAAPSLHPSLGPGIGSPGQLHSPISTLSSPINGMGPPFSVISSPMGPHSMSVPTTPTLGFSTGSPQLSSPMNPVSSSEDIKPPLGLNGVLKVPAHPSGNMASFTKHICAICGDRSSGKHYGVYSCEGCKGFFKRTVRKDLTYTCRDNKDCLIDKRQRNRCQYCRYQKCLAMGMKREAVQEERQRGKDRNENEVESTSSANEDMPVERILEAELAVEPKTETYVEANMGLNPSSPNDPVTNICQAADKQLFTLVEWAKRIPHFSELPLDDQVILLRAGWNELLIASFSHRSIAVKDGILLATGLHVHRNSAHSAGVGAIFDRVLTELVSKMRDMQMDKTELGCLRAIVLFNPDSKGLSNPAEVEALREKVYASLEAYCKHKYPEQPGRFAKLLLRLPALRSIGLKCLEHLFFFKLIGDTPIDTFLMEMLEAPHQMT
# UniProt P04637, whole entry, looked up: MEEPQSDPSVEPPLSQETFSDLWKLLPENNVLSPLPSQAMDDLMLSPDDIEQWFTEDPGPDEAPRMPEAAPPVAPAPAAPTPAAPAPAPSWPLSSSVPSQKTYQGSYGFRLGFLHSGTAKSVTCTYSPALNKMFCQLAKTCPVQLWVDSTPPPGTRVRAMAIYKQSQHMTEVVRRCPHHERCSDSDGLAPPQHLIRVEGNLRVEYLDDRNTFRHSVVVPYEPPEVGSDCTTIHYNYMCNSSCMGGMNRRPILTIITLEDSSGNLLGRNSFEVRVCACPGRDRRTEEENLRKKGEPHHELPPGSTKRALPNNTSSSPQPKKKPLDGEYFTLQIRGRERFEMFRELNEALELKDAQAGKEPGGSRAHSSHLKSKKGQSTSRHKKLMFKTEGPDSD
# Where “and” joins values, the source holds several entries; their conditions need not be identical. Equal entries are not always repeated. The shares of active, inactive and inconclusive entries below differ from those in the screen. For some assays here: A potency beside an inconclusive call is a rough fit, not a confirmed value. Some compounds were tested as several samples or in several runs, with calls that do not always agree. Calls of active or inactive are those of the source. The calls were made as follows: active = hit-call score of the fitted dose curve at least 0.9, where 1 is the maximum; inconclusive = response in the unintended direction; inactive = score below 0.9.
# Assays:
# [1] = target: Retinoic acid receptor RXR-alpha (Homo sapiens) (UniProt P19793); assay: OT_NURR1_NURR1RXRa_0480: Odyssey Thera (OT) 8-hour HEK293T Protein Complementation Assay for Nurr1/retinoid X receptor (RXR) (AID 2283385)
# Method in brief: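 Interaction of Nurr1 with RXRα read as reconstituted reporter fluorescence in a HEK293T fragment-complementation system, 8 h post-treatment; increase over DMSO baseline analysed.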
# [2] = target: Retinoic acid receptor RXR-alpha (Homo sapiens) (UniProt P19793); assay: OT_NURR1_NURR1RXRa_1440: Odyssey Thera (OT) 24-hour HEK293T Protein Complementation Assay for Nurr1/retinoid X receptor (RXR) (AID 2283386)
# Method in brief: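 Gain in fluorescence, fitted relative to DMSO, reflects Nurr1–RXRα association in HEK293T cells after 24 h dosing. Bait and prey are each linked to a reporter-protein fragment that reassembles on interaction.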
# [3] = ATG_XTT_Cytotoxicity: Cytotoxicity Assessment in the Attagene TRANS-FACTORIAL HepG2 Assay (AID 2283584);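 also: XTT signal for cell number as viability in transfected HepG2 cells; cells exposed to compound for 24 h before reading; active means loss of viability signal versus DMSO baseline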
# Method in brief: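 Transfect HepG2 with GAL4-UAS reporter units, dose compound, incubate 24 h, then measure viable cell number by XTT. Fit concentration response against DMSO baseline.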
# [4] = TOX21_p53_BLA_p2_viability: Viability Assessment in the Tox21 HCT-116 p53 Agonism Beta-lactamase Assay, Phase 2 (AID 2283591);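 also: compound exposure lasted 16 h at 37 °C; actives lower the ATP signal meaning cytotoxicity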
# Method in brief: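 Cytotoxicity readout: CellTiter-Glo ATP luminescence, 30 min at room temperature, after the beta-lactamase read. Cells were HCT116 exposed 16 h at 37C to compounds pin-transferred at 217-fold dilution from DMSO stocks.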
# [5] = TOX21_p53_BLA_p3_viability: Viability Assessment in the Tox21 HCT-116 p53 Agonism Beta-lactamase Assay, Phase 3 (AID 2283593);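 also: cells exposed to compound for 16 h before reading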
# Method in brief: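 Cellular ATP was quantified by CellTiter-Glo luminescence, read after 30 min at room temperature. Beforehand, HCT116 cells (4000/well) received compound 5 h post-seeding, 217-fold diluted from DMSO, then incubated 16 h at 37C.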
# [6] = target: Cellular tumor antigen p53 (Homo sapiens) (UniProt P04637); assay: TOX21_p53_BLA_p3_ratio: Tox21 HCT-116 p53 Agonism Beta-lactamase Assay, Ratio, Phase 3 (AID 2283596)
# Method in brief: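 Cells were seeded at 4000/well, rested 5 h at 37C, then dosed with DMSO compound solutions (217-fold dilution) for 16 h. CCF4-AM substrate was loaded for 2 h at room temperature, and the 460/530 nm emission ratio was fitted for gain of signal versus DMSO.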
# [7] = TOX21_p53_BLA_p4_viability: Viability Assessment in the Tox21 HCT-116 p53 Agonism Beta-lactamase Assay, Phase 4 (AID 2283597);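 also: hits lower the luminescence signal meaning cytotoxicity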
# Method in brief: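 Viability is taken as cellular ATP: after 16 h compound exposure of HCT116 cells and a 2 h room-temperature CCF4-AM substrate step, CellTiter-Glo reagent is added and luminescence is measured 30 min later.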
# [8] = target: Cellular tumor antigen p53 (Homo sapiens) (UniProt P04637); assay: TOX21_p53_BLA_p5_ratio: Tox21 HCT-116 p53 Agonism Beta-lactamase Assay, Ratio, Phase 5 (AID 2283599)
# Method in brief: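 Beta-lactamase reporter ratio (blue 460 nm over green 530 nm, 405 nm excitation) after 2 h CCF4-AM loading, in HCT-116 cells exposed 16 h at 37 C to compounds pinned at 217-fold dilution. Increases relative to DMSO baseline scored.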
# [9] = target: Cellular tumor antigen p53 (Homo sapiens) (UniProt P04637); assay: TOX21_p53_BLA_p4_ratio: Tox21 HCT-116 p53 Agonism Beta-lactamase Assay, Ratio, Phase 4 (AID 2283601)
# Method in brief: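 Signal is the blue/green (460nm/530nm) ratio of cleaved versus uncleaved CCF4-AM substrate, read after 2 h substrate loading. Cells were HCT116 carrying the p53-responsive beta-lactamase reporter, dosed 16 h at 37C, 5% CO2; CellTiter-Glo measured in parallel.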
# [10] = Tanguay_ZF_120hpf_YSE_legacy: (Legacy) Oregon State University Tanguay Lab 120 Hour Post-fertilization zebrafish Assay for Yolk Sac Edema (AID 2283634);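 as to AC50: actives raise the incidence of yolk sac edema above the DMSO baseline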
# Method in brief: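 Readout: presence or absence of yolk sac edema at 120 hpf, fitted upward against DMSO controls. Exposure ran statically from 6 hpf in dechorionated embryos kept at 28C.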
# [11] = TOX21_p53_BLA_p5_viability: Viability Assessment in the Tox21 HCT-116 p53 Agonism Beta-lactamase Assay, Phase 5 (AID 2283600)
# Method in brief: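 Viability is taken from cellular ATP content, measured by luciferase luminescence in the same wells after the beta-lactamase ratio read. Cells are seeded at 4000 per well and exposed to DMSO-dissolved compounds, diluted 217-fold, for 16 h.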
# [12] = Tanguay_ZF_120hpf_JAW_legacy: (Legacy) Oregon State University Tanguay Lab 120 Hour Post-fertilization zebrafish Assay for Jaw Malformation (AID 2283638);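 as to AC50: active means more embryos with jaw malformation than DMSO controls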
# Method in brief: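 Static waterborne exposure of dechorionated wild-type (Tropical 5D) zebrafish from 6 to 120 hpf at 28C, 0.64% DMSO vehicle; 5uM trimethyltin chloride served as positive control. Jaw morphology recorded as binary at 120 hpf.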
# [13] = target: Cellular tumor antigen p53 (Homo sapiens) (UniProt P04637); assay: TOX21_p53_BLA_p2_ratio: Tox21 HCT-116 p53 Agonism Beta-lactamase Assay, Ratio, Phase 2 (AID 2283592)
# Method in brief: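 Cleaved-to-uncleaved substrate ratio (460 vs 530 nm) measured in HCT116 cells with an inducible beta-lactamase reporter linked to p53 activity. Compounds incubated 16 h at 37C before 2 h room-temperature CCF4-AM loading.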
# [14] = Tanguay_ZF_120hpf_EYE_legacy: (Legacy) Oregon State University Tanguay Lab 120 Hour Post-fertilization zebrafish Assay for Eye Malformation (AID 2283636);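 also: binary presence or absence of eye malformation scored by brightfield in 120 hpf larvae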
# Method in brief: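 Binary brightfield scoring of eye defects at 120 hpf after static exposure from 6 hpf of single pronase-dechorionated wild-type embryos (28C, 0.64% DMSO). Non-mortality endpoints omitted where embryos died; fit vs DMSO.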
# [15] = Tanguay_ZF_120hpf_SNOU_legacy: (Legacy) Oregon State University Tanguay Lab 120 Hour Post-fertilization zebrafish Assay for Snout Malformation (AID 2283637)
# Method in brief: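 Binary snout-malformation call at 120 hpf in wild-type 5D embryos, chorion removed by pronase, under static exposure from 6 hpf at 28C (0.64% DMSO). Embryos dying by 24 or 120 hpf excluded.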
# [16] = Tanguay_ZF_120hpf_AXIS_legacy: (Legacy) Oregon State University Tanguay Lab 120 Hour Post-fertilization zebrafish Assay for Body Axis Malformation (AID 2283635)
# Method in brief: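 Static 6–120 hpf chemical exposure of dechorionated wild-type 5D zebrafish, one per well at 28C; morphology endpoint scored binary at 120 hpf relative to DMSO control.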
compound,measurement,setting,value
CCCOc1ccc(S(=O)(=O)N2CCN(CC)CC2)cc1-c1nc2c(CC)n(Cc3ccccn3)nc2c(=O)[nH]1,AC50,[1],inconclusive: 50 µM
same,outcome,[1],inactive
same,AC50,[2],inconclusive: 50 µM
CC(=O)C=CC1=C(C)CCCC1(C)C,AC50,[1],active: 50 µM
O=C(O)c1ccccc1C(c1ccc(O)cc1)c1ccc(O)cc1,AC50,[1],inconclusive: 50 µM
same,outcome,[1],inactive
same,AC50,[2],inconclusive: 50 µM
same,AC50,[3],inconclusive: 100 µM
NC(=O)N1c2ccccc2C=Cc2ccccc21,AC50,[1],inconclusive: 50 µM and inconclusive: 9.92 µM
O=c1[nH]cnc2c1ncn2[C@H]1CC[C@@H](CO)O1,AC50,[1],inconclusive: 3.75 µM
same,outcome,[2],inactive
N#Cc1ccccc1O,AC50,[1],inconclusive: 0.634 µM
O=C(O)CN(CC(=O)O)CC(=O)O,AC50,[1],inconclusive: 45.8 µM
same,outcome,[1],inactive
same,AC50,[2],inconclusive: 45.8 µM
same,outcome,[2],inactive
same,AC50,[4],inconclusive: 46.6 µM
same,AC50,[5],inconclusive: 42.2 µM
same,outcome,[5],inactive
same,AC50,[6],inconclusive: 42.2 µM
same,outcome,[6],inactive
same,AC50,[7],inconclusive: 42.2 µM and inconclusive: 44.9 nM
same,AC50,[8],inconclusive: 46.6 µM
same,AC50,[9],inconclusive: 46.6 µM
same,outcome,[10],inactive
CCOC(=O)COc1cc(-n2ncc(C(F)(F)F)c(C)c2=O)c(F)cc1Cl,AC50,[1],inconclusive: 50 µM
same,outcome,[1],inactive
same,outcome,[2],inactive
same,outcome,[4],inactive
same,AC50,[5],inconclusive: 46.1 µM
same,AC50,[6],inconclusive: 75 µM
same,outcome,[7],inactive
same,AC50,[8],inconclusive: 46.1 µM
same,AC50,[11],inconclusive: 16.3 µM
same,AC50,[12],inconclusive: 202 µM
CCCCCCCCCCCCCCCCCC(=O)O,AC50,[1],inconclusive: 3.63 µM
O=C1CCCCC1,AC50,[1],inconclusive: 1.29 µM
same,outcome,[2],inactive
Cc1c2ccccc2c(C)c2c1ccc1ccccc12,AC50,[1],inconclusive: 0.967 µM
same,outcome,[1],inactive
same,AC50,[2],inconclusive: 22.2 µM and inconclusive: 27.4 µM
same,AC50,[3],active: 56.2 µM
same,AC50,[13],active: 14.6 µM and active: 37.7 µM
same,AC50,[5],active: 61.5 µM
same,outcome,[5],inactive
same,AC50,[6],active: 29.5 µM and active: 52.5 µM
same,AC50,[8],active: 41.7 µM
same,AC50,[9],active: 43.2 µM and active: 30.5 µM
CC(C)N(c1ccccc1)C(C)C,AC50,[1],inconclusive: 50 µM
N#C[C@@H]1CC(F)(F)CN1C(=O)CNC1CC2CCC(C1)N2c1ncccn1 (some centres undefined),AC50,[1],inconclusive: 17.7 µM
same,outcome,[1],inactive
same,AC50,[2],inconclusive: 3.25 µM
same,outcome,[2],inactive
same,AC50,[13],inconclusive: 46.1 µM
same,AC50,[6],inconclusive: 46.1 µM
same,AC50,[8],inconclusive: 46.1 µM
same,outcome,[10],inactive
CCOC(=O)C(C)Oc1ccc(Oc2cnc3cc(Cl)ccc3n2)cc1 (centres undefined),AC50,[1],inconclusive: 43 µM
OC1CCC(C2CCCCC2)CC1 (centres undefined),AC50,[1],inconclusive: 500 nM and inconclusive: 1.43 µM
same,outcome,[1],inactive
same,AC50,[2],inconclusive: 500 nM and inconclusive: 50 µM
same,outcome,[2],inactive
same,outcome,[13],inactive
same,AC50,[7],inconclusive: 46.1 µM
same,outcome,[8],inactive
same,outcome,[9],inactive
CCCCCCCCCCCCCCOS(=O)(=O)O,AC50,[1],active: 79.4 µM
same,outcome,[1],inactive
same,AC50,[2],inconclusive: 81.1 µM
same,AC50,[8],active: 80.7 µM
same,AC50,[11],active: 68.3 µM
same,AC50,[9],active: 78.4 µM
same,AC50,[14],active: 26.1 µM
same,AC50,[15],active: 24.7 µM
CCCCCCCCCCCCCCCCO,AC50,[1],inconclusive: 12.5 µM
same,outcome,[1],inactive
same,AC50,[2],inconclusive: 50 µM
same,outcome,[2],inactive
same,outcome,[16],inactive
same,outcome,[12],inactive
Nc1ccc(C(=O)O)cc1,AC50,[1],inconclusive: 50 µM
same,outcome,[1],inactive
same,AC50,[2],inconclusive: 50 µM
same,AC50,[4],inconclusive: 31 µM and inconclusive: 23 µM
same,AC50,[13],inconclusive: 45.9 µM
same,AC50,[5],inconclusive: 46.1 µM and inconclusive: 86.5 µM and inconclusive: 23 µM
same,AC50,[6],inconclusive: 45.9 µM
same,AC50,[7],inconclusive: 156 nM and inconclusive: 45.9 µM and inconclusive: 23 µM
same,AC50,[8],inconclusive: 45.9 µM
same,outcome,[11],inactive
same,AC50,[10],inconclusive: 70.9 µM
same,AC50,[14],inconclusive: 0.0124 µM
O=S(=O)(O)c1ccc2ccccc2c1,AC50,[1],inconclusive: 45.5 µM
same,outcome,[1],inactive
same,outcome,[2],inactive
same,AC50,[6],inconclusive: 46.1 µM and inconclusive: 42 µM
same,outcome,[11],inactive
same,AC50,[9],inconclusive: 46.1 µM

# A portion taken from the entries so far, as a working copy:
compound,measurement,setting,value
Nc1ccc(C(=O)O)cc1,outcome,[11],inactive
same,AC50,[10],inconclusive: 70.9 µM
same,AC50,[14],inconclusive: 0.0124 µM
O=S(=O)(O)c1ccc2ccccc2c1,AC50,[1],inconclusive: 45.5 µM

# 2 entries drawn at random from the list so far, as already listed:
compound,measurement,setting,value
CCOC(=O)COc1cc(-n2ncc(C(F)(F)F)c(C)c2=O)c(F)cc1Cl,outcome,[2],inactive
NC(=O)N1c2ccccc2C=Cc2ccccc21,AC50,[1],inconclusive: 50 µM and inconclusive: 9.92 µM
